Data as given in PMC3920478, “Small molecule-mediated refolding and activation of myosin motor function” (eLife, 2014).

The chains behind the UniProt entries cited, without tags or fusion partners. Residues count along the entry.
UniProt P79293, 1-810 limits assumed: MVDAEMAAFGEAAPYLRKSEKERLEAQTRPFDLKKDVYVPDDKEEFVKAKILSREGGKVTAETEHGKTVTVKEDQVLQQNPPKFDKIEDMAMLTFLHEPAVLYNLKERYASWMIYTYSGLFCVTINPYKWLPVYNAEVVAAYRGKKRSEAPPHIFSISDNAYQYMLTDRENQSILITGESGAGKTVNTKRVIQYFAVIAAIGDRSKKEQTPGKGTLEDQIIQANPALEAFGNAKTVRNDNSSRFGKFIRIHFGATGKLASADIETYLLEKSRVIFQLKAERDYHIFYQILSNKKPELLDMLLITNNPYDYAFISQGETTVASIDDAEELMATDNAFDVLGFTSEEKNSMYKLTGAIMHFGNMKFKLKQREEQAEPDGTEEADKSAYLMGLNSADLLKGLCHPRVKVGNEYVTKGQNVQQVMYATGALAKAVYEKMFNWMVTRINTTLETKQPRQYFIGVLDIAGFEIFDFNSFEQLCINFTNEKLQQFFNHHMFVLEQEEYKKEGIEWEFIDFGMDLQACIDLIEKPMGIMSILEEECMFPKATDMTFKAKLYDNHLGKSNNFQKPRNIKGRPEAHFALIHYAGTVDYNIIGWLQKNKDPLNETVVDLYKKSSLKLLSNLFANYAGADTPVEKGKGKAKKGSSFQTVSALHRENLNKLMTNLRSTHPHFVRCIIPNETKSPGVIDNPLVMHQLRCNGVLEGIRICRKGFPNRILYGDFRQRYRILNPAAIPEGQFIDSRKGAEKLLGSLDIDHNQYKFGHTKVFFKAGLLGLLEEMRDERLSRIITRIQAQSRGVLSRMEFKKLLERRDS
UniProt P79293, whole entry: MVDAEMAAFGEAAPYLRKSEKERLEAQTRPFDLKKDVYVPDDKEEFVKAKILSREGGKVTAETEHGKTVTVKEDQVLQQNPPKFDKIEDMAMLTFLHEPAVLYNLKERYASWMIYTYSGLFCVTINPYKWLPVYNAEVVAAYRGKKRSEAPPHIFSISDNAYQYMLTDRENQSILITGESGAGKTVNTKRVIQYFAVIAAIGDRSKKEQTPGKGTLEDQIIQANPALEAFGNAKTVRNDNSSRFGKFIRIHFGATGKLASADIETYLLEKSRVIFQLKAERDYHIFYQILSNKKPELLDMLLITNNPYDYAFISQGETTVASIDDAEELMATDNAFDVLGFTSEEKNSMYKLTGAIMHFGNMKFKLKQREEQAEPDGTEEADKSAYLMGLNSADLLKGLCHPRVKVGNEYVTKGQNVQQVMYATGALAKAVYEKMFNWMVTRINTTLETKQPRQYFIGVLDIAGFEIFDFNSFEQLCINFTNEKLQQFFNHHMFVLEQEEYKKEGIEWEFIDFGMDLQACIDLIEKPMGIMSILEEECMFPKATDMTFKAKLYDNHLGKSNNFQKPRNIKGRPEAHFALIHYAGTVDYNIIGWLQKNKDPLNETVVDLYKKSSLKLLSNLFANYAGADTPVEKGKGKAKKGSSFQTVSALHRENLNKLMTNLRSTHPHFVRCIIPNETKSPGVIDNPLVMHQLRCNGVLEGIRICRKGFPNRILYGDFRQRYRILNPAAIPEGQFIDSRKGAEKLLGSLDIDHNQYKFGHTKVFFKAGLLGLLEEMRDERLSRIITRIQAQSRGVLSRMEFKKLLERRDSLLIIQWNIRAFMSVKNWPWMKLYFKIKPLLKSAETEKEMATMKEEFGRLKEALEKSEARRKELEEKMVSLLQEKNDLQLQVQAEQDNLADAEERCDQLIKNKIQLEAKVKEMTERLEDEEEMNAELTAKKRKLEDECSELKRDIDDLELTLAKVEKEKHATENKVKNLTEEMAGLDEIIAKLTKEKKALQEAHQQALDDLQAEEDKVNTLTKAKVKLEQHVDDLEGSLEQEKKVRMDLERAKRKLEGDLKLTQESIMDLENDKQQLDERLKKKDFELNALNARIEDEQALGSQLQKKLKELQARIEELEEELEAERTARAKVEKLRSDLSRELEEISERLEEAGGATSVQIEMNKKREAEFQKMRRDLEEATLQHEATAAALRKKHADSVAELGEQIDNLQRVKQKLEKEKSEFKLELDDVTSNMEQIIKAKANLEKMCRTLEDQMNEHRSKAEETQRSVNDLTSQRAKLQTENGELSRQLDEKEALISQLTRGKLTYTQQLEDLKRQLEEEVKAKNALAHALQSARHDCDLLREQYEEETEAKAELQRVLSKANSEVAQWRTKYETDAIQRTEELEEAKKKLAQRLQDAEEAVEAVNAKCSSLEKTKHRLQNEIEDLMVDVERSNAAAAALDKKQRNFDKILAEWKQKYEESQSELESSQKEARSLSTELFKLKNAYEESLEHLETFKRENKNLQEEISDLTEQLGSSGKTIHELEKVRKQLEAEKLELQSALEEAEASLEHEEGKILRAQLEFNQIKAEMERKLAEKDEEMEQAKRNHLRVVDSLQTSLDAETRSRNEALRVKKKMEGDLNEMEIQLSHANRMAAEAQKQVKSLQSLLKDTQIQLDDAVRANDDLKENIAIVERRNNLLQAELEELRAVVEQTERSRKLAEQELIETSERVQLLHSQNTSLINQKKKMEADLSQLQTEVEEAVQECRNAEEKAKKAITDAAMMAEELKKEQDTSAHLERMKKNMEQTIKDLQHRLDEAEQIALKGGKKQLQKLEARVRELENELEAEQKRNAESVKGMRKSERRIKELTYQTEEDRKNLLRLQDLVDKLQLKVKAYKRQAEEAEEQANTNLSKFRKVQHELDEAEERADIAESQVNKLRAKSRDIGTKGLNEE

What was measured:
β-cardiac myosin [1] = molecular target: T1, β-cardiac myosin (Sus scrofa, UniProt P79293); assay: Steady-state basal and actin-activated Mg2+-ATPase (NADH-coupled assay); assay type: biochemical, Porcine; conditions: 25 µM EMD 57033 vs control
β-cardiac myosin [2] = molecular target: T1, β-cardiac myosin; assay: Transient kinetics (stopped-flow) of the ATPase cycle; conditions: 25 µM EMD 57033 vs control

## COc1ccc(C(=O)N2CCCc3cc(C4=NNC(=O)S[C@@H]4C)ccc32)cc1OC
β-cardiac myosin [1]
  KM(Actin) ∼Change (−fold), decrease = increased apparent actin affinity: 10 fold and more than 10 fold
  kcat/KM(Actin) (calculated ratio) ∼Change (−fold), increase: 16 fold and more than 10 fold
β-cardiac myosin [2]
  K1k+2 ∼Change (−fold), increase: 3.4 fold and threefold

For part of its entries the source gives two or more results. This list holds those alone. An entry can have further records. The values listed for one entry differ for a reason that is not stated; some may be repeats, others may stem from another dose, organism or construct than stated.
